Here are results for 1 sequence from patent US7387779B2 (Beth Israel Deaconess Medical Center, priority 1998, dated 2008).

The nature of this data set: peptide synthesis. Particulars: whole synthesis.

End groups of sequences in plain letters are not given here.

As to KQRFTTMPFLFCNVNDVCNFASRNDYS, the “final HPLC purity” value is on record as “greater than 90% purity”.
